Source: ChEMBL document CHEMBL3988442, “University of Dundee, Small-Polar-MMV Screening Library” (2021).

Chains of the proteins cited; added tags and fusions are not shown.
UniProt E9BF75, entry or part of it: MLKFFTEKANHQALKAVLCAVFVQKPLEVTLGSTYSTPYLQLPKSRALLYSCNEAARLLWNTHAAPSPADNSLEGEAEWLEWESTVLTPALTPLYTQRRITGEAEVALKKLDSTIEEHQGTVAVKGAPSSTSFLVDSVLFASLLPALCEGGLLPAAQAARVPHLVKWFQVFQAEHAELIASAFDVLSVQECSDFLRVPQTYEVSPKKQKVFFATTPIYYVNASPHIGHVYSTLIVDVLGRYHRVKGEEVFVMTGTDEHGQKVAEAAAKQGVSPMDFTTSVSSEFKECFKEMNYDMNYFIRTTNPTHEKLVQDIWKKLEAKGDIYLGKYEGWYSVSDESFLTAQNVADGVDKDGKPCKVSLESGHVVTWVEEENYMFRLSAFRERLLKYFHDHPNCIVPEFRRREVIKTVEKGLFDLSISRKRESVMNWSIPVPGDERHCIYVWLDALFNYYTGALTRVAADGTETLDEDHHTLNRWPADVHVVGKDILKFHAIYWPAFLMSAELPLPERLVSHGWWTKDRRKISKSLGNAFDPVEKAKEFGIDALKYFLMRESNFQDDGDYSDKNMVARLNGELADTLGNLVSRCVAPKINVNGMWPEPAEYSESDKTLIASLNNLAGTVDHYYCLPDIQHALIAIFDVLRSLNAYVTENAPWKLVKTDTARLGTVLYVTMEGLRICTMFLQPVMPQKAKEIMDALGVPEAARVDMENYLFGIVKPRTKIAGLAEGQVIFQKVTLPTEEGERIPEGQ

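Primary screen of methionyl-tRNA synthetase; the read-out is not stated. Target: Methionyl-tRNA synthetase (putative), Leishmania donovani (UniProt E9BF75). The test concentration is not given. Values are per cent inhibition. About 68,000 compounds were tested under these conditions; 0.035% (about 24) showed 50% or more at least once.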

All values are in %.
How 0% and 100% were set is not recorded. Most values in the screen are low, and negative values occur.
The compounds are a random part of those screened.

| # | structure | Inhibition |
|---|---|---|
| 1 | `c1cc(-c2c[nH]c([C@@H]3COCCN3C3CCOCC3)n2)ccn1` | -2.373% |
| 2 | `O=C(NC1CCCCC1)N1CCn2c(nnc2C2CCCN2)C1` (centres undefined) | 9.714% |
| 3 | `C[C@@H]1CN(C2CCN(c3ccccc3)CC2)CC[C@@]1(O)C1CCOCC1` | 8.115% |
| 4 | `CC(C)COCCC(=O)NCc1cn2cc(Br)ccc2n1` | 9.019% |
| 5 | `COCc1csc(NC(=O)NCc2ccc(C)s2)n1` | 18.21% |
| 6 | `CCN1CCN(c2ccc(F)cc2C(C)NCc2ccccn2)CC1` (centres undefined) | 3.559% |
| 7 | `c1ncn(Cc2cn3c(n2)CN(CC2CCCCC2)CC3)n1` | 8.591% |
| 8 | `CCNC(=O)c1ccc(NC(=O)N(C)Cc2cccn2C)c(C)c1` | 9.214% |
| 9 | `CCC(C)NC(=O)c1ccc(-c2ccco2)[nH]c1=O` (centres undefined) | 86.24% |
| 10 | `CCOCCS(=O)(=O)c1nnc(NCCOC)s1` | 19.89% |
| 11 | `NC(=O)CCN1CCC(C(=O)c2cc(F)ccc2F)CC1` | 7.746% |
| 12 | `Cn1cc(C[C@H]2[C@@H](O)CCN2C(=O)C2CCC2)cn1` | 15.6% |
| 13 | `O=C(Nc1cccc(C2SCCS2)c1)C1CCCN1c1nccs1` (centres undefined) | 21.2% |
| 14 | `CCn1cnnc1CNC(=O)N1CCC(OCc2ccccc2)CC1` | 25.97% |
| 15 | `Cc1ccc(C2CN(C(=O)c3c(C)cc(C)[nH]c3=O)CCO2)c(C)c1` (centres undefined) | 8.741% |
| 16 | `CCOC(=O)[C@H]1CNC[C@H]1C(=O)OCC` | 11.86% |
| 17 | `O=c1cc(CNS(=O)(=O)C2CC2)nc2n1CCCNC2` | 13.28% |
| 18 | `CCN1C(=O)CC[C@@H]2N(C(=O)CCn3nccc3C)CCCC[C@@]21C` | 14.29% |
| 19 | `CCCn1c(N2CCCC(C)C2)nc2c(C)nn(C)c2c1=O` (centres undefined) | 25.38% |
| 20 | `CCN(C(=O)CCc1ccc2[nH]ccc2c1)C1CC(=O)NC1=O` (centres undefined) | 9.524% |
| 21 | `COc1ncccc1C(=O)N1CC(c2nc(-c3ccco3)no2)C1` | 3.106% |
| 22 | `O=C(O)c1ccc2[nH]cc(CN3CCCC3)c2c1` | 16.15% |
| 23 | `CN(C)c1nccc(-c2cnc(N(C)C)[nH]c2=O)n1` | 10.92% |
| 24 | `Cc1cccnc1NC(=O)C1CCCN1Cc1ccccc1` (centres undefined) | 5.854% |
| 25 | `CC(O)CN1CCN(C(=O)c2cccc3[nH]ncc23)CC1` (centres undefined) | 5.222% |
| 26 | `CCc1ccc(-n2nnc(C(=O)O)c2-c2ccccn2)cc1` | 5.152% |
| 27 | `O=C([C@@H]1COC[C@H]2CN(c3ccncn3)C[C@H]21)N1CCCCO1` | -146.6% |
| 28 | `Clc1cnccc1N1CCCOCC1` | 7.326% |
| 29 | `CC(C)NC(=O)N(C)C1CCN(c2ccccc2Cl)C1=O` (centres undefined) | 13.31% |
| 30 | `CNC(=O)c1cc2c(nc1N(C)C)CCN(S(=O)(=O)N(C)C)CC2` | 10.96% |
| 31 | `O=C1C(n2nnc(-c3ccsc3)n2)CCN1CC(F)(F)F` (centres undefined) | 18.21% |
| 32 | `CCNC(=O)Nc1ncc(-c2cccnc2)s1` | 13.3% |
| 33 | `CC(=O)c1cccc(NC(=O)Cn2cc(-c3ccccc3)ncc2=O)c1` | 14.37% |
| 34 | `Cc1cccc(-c2nc(C)nn2CC(=O)NC2CCCC2)c1` | 10.12% |
| 35 | `COc1ncccc1CNC1CCc2c(ccc(=O)n2C)C1` (centres undefined) | 7.625% |
| 36 | `Cn1nc(N2CCCC(C(=O)Nc3nccs3)C2)ccc1=O` (centres undefined) | 8.257% |
| 37 | `CCCN(C)C(=O)c1cc(Br)cc(S(=O)(=O)N2CCOCC2)c1F` | 11.7% |
| 38 | `Cc1cc2nc(C(C)C)cc(NCCNc3ncccc3C)n2n1` | 1.075% |
| 39 | `COc1cccc(Cn2cccc(C#N)c2=O)c1` | 8.696% |
| 40 | `Cc1c[nH]nc1C1CCCN(c2cnccn2)C1` (centres undefined) | 16.2% |
| 41 | `CC(C)N1CC2(CCCN(c3ncc(Cl)cc3F)C2)CCC1=O` (centres undefined) | 13.61% |
| 42 | `COc1ccc2c(c1)CCCN2C(=O)CNCC1CN(C)CCO1` (centres undefined) | 6.948% |
| 43 | `COc1cc(CC(O)CC#N)c(OC)c2c1OCO2` (centres undefined) | 0.2597% |
| 44 | `CNC(=O)c1cnc(/C=C/c2cc(OC)c(OC)c(OC)c2)s1` | 11.43% |
| 45 | `COC1CCN(S(=O)(=O)N2CCCC(c3cccc(C(=O)O)c3)C2)CC1` (centres undefined) | 7.829% |
| 46 | `COc1ccc(C[C@H]2CNCC[C@H]2OC)cc1` | 22.97% |
| 47 | `Cc1ccc([C@@H]2CN(C(=O)CCc3ccco3)C[C@H]2N(C)C)cc1` | 14.97% |
| 48 | `CCNc1nc(N(C)C)nc(-n2cnc(SC)n2)n1` | 8.009% |
| 49 | `Cc1ccc(C(=O)N2C[C@H](OCC3CCOCC3)[C@H]3OCCC[C@H]32)o1` | 7.5% |
| 50 | `CC(C)(O)CCc1cccc(C(=O)N2CCC3(CCOCC3)CC2)c1` | 15.86% |
| 51 | `C=C(C)Cn1cc(C(N)=O)nc1C1CC1` | 8.009% |
| 52 | `CC(=O)OC1CN(c2nc3c(Cl)cccc3s2)C1` | 9.296% |
| 53 | `Cc1cccc(C2CCCN(C(=O)C3CCN(CC(N)=O)CC3)C2)c1` (centres undefined) | 16.03% |
| 54 | `CC(C(=O)NCC1CCCCC1)S(=O)(=O)Cc1csc(-c2cccs2)n1` (centres undefined) | 8.982% |
| 55 | `O=C1CCCCN1CCC(=O)N1CCCCC1c1ccc(F)cc1` (centres undefined) | 16.19% |
| 56 | `CCOCC(O)CN1CCN(C(=O)c2cccc3[nH]ncc23)CC1` (centres undefined) | 4.178% |
| 57 | `O=C(NCc1ccco1)N1CCOC(c2ccccc2Cl)C1` (centres undefined) | 11.45% |
| 58 | `CO[C@H]1CCN(c2ccc(C)nn2)[C@H]1Cc1cnn(C)c1` | 15.24% |
| 59 | `CC(C)NC(=O)N1CCc2nc(C(=O)NCc3ccccc3)sc2CC1` | 13.13% |
| 60 | `CCc1cc(=O)n(CCNC(=O)Nc2ccc(OC(F)(F)F)cc2)cn1` | 11.02% |
| 61 | `CC(C)(C)NC(=O)C[C@@H]1CCNC[C@@H]1Cc1cc(C(C)(C)C)on1` | 10.1% |
| 62 | `Cc1cccc(N2CCCN=C2NC(=O)c2cccc(Cl)c2)c1` | -12.31% |
| 63 | `CCC(NC(=O)c1cc(OC)c2c(c1)OCCO2)c1cccs1` (centres undefined) | 25% |
| 64 | `Cc1cc(C)n(C2CN(c3ncnc4[nH]ccc34)C2)n1` | 16.8% |
| 65 | `O=C(Nc1ccc(-n2ccc(C(=O)O)n2)cc1)c1ccccc1` | 6.497% |
| 66 | `CCc1ncncc1C(=O)N1CCCC(n2nc(C)nc2C)C1` (centres undefined) | 4.211% |
| 67 | `COc1ccc(CN(Cc2cncn2C)CC2CCCO2)cc1` (centres undefined) | 9.04% |
| 68 | `CNC(=O)C1(Cc2cc(C(C)C)no2)CCN(Cc2ccccn2)C1` (centres undefined) | 7.812% |
| 69 | `Cc1cc(C)c(CNC(=O)NC2CCN(C(=O)C(C)C)CC2)c(C)c1` | 13.92% |
| 70 | `CCn1cc(CN2CCCN(C(=O)C3(C#N)CCCCC3)CC2)cn1` | 5.396% |
| 71 | `CCOC(=O)CN1CCC2(CCCN(CCOc3ccccc3)C2)C1` (centres undefined) | 16.35% |
| 72 | `Cc1cnn(C2CN(Cc3nnc(-c4ccccc4Cl)o3)C2)c1` | 8.707% |

Repeated from the top, 9 entries:

- c1cc(-c2c[nH]c([C@@H]3COCCN3C3CCOCC3)n2)ccn1 : -2.373%
- O=C(NC1CCCCC1)N1CCn2c(nnc2C2CCCN2)C1 (centres undefined) : 9.714%
- C[C@@H]1CN(C2CCN(c3ccccc3)CC2)CC[C@@]1(O)C1CCOCC1 : 8.115%
- CC(C)COCCC(=O)NCc1cn2cc(Br)ccc2n1 : 9.019%
- COCc1csc(NC(=O)NCc2ccc(C)s2)n1 : 18.21%
- CCN1CCN(c2ccc(F)cc2C(C)NCc2ccccn2)CC1 (centres undefined) : 3.559%
- c1ncn(Cc2cn3c(n2)CN(CC2CCCCC2)CC3)n1 : 8.591%
- CCNC(=O)c1ccc(NC(=O)N(C)Cc2cccn2C)c(C)c1 : 9.214%
- CCC(C)NC(=O)c1ccc(-c2ccco2)[nH]c1=O (centres undefined) : 86.24%